Binding data for one molecule are collected here from patent US20090202543A1 (ONCOTHERAPY SCIENCE, published 2009).

In this test the target is T1, B7330N-HA (HA-tagged B7330N expressed from pCAGGS-B7330N-HA in COS-7 cells) (human) (UniProt Q8NCL4).
T1 sequence (chain, N-glycosylated at Asn-476): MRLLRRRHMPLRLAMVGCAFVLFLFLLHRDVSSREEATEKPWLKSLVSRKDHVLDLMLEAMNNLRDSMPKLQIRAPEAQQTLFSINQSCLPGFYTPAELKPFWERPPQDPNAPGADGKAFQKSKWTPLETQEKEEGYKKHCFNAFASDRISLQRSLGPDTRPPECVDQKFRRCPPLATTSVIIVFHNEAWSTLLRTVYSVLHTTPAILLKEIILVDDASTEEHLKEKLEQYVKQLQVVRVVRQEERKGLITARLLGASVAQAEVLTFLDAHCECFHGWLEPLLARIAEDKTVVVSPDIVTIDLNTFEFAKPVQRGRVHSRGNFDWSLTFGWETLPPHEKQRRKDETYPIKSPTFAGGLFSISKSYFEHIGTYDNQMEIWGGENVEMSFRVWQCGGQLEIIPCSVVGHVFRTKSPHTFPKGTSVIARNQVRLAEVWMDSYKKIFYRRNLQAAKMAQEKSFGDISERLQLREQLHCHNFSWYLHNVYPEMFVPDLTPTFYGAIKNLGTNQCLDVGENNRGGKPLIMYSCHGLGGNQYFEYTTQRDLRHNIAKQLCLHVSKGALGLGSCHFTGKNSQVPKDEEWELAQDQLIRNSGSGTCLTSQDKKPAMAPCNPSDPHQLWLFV
The test is described as follows: co-immunoprecipitation from co-transfected COS-7 cells, anti-HA pull-down.

No constants are given. Whether binding was seen depends on the method and setting. In cells and extracts the contact can be indirect. Some results given as binding are weak or reduced against the parent protein; the word gives no strength. Sequences can lack the tags named with a protein.

B1: B7330N-myc (myc-tagged B7330N expressed from pcDNA3.1-B7330N-myc in COS-7 cells) (enzyme, not shown: small tags and cut ends)
chain: T1 sequence (chain, N-glycosylated at Asn-476)
In the case of B1, the binding entry is “binds”.
